The exact form of at least one protein or probe is not confirmed.

Results on one sequence are retold here after US20050036992A1, “Novel use of liver X receptor agonists” (IRM LLC, priority 2002, published 2005).

The test system of the data set is LXR/RXR heterodimer. The experiment in a line: EMSA. To be noted: in vitro translated proteins, radiolabeled mGLUT4 oligonucleotide; exact oligo bounds not stated, SEQ 1 is the aligned LXRE; protein translated in vitro; label: radiolabel.

In the case of “CTCCGGGTTACTTCGGGGCATACA (double strand) [mouse GLUT4 promoter LXRE (DR-4)]”, the binding result was “binds”.
